These are yes or no findings as the source states them, for the method shown. In cells and extracts the contact can be indirect.
Molecular target: flag-tagged N-WASP (UniProt O00401)
Test: co-IP; HeLa cells co-transfected with flag-tagged N-WASP or N-WASPΔGBD and a GFP-tagged effector; lysis in 50mM Tris HCl pH7.4, 150mM NaCl, 1mM EDTA, 1% Triton-X 100; flag-tagged N-WASP immunoprecipitated with M2 affinity resin; blots with anti-flag or anti-GFP

Amino acid sequences for entries named in this document (tags omitted).
UniProt O00401: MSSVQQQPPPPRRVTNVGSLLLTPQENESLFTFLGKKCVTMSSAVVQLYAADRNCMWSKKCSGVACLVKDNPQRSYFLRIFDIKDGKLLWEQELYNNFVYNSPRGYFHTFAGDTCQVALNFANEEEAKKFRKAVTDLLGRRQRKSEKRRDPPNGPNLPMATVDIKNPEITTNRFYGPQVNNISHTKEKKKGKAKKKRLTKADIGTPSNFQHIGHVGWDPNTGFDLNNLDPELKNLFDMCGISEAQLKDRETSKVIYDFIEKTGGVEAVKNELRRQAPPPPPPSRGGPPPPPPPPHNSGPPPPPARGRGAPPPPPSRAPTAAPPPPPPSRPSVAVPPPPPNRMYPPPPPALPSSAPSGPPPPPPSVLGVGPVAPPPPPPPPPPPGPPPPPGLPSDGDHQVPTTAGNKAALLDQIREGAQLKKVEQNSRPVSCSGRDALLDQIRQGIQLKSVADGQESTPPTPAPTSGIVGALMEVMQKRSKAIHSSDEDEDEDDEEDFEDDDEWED
UniProt O84702: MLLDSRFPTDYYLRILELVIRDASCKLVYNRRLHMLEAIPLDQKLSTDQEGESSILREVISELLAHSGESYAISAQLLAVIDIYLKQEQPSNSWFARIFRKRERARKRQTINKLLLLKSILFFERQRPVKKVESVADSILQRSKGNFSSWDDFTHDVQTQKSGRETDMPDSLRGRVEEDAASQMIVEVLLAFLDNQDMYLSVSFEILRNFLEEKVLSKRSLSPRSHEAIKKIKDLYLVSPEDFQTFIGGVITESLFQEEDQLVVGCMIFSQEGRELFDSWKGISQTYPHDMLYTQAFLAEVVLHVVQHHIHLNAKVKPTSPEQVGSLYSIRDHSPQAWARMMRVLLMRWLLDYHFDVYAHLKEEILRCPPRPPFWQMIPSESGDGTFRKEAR

For “GFP-tagged CT696 (from UniProt O84702 1-392)”, the binding was “no binding”.

Reference: PMC7526919
